The list shows only some results of the screen, not a fair sample: it is rich in T/C values a quarter to a half above the control, in often repeated tests (any T/C) and in doses without a T/C. Further doses and runs are listed elsewhere. T/C gives the treated animals as a percentage of the vehicle group. Some doses have a count of surviving animals in place of a T/C: the source holds a T/C of zero for them, seemingly a mark for toxic or unscored doses. Some doses without a T/C left all or most animals alive at the check, yet need not have been tolerated: the source hardly ever lists a survival T/C far under the control, and the zero likely stands for such cases as well. Survivors were counted at the toxicity check, usually on the fifth day, unless a day is given; later deaths do not show. Schedules are NCI's codes, read here as Q, the interval in days (D) or hours (H), X, the number of doses. Where survival is the endpoint, this PubChem deposit counts one and a half times the control or more as active, and values a quarter to a half above the control carry no call in these data; other NCI protocols may use other cut-offs. Some entries were tested several times; the results are listed from low to high.
Test system: CD2F1 mice, L1210 leukemia ip, survival T/C
Test: NCI In Vivo Anticancer Drug Screen. Data for tumor model L1210 Leukemia (intraperitoneal) in CD2F1 (CDF1) mice
Conditions: higher T/C = longer survival
How it was run: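 Read-out first: treated-group measurement over vehicle-control measurement, expressed as a ratio. Animals bore a transplanted tumor line and were dosed with compound or vehicle.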

[1] = T/C endpoint: mean survival time, dose: 200.0 mg/kg/injection, schedule: Q01DX001 (ip), vehicle: saline with Tween-80
[2] = T/C endpoint: mean survival time, dose: 300.0 mg/kg/injection, schedule: Q01DX001 (ip), vehicle: saline
[3] = T/C endpoint: mean survival time, dose: 400.0 mg/kg/injection, schedule: Q01DX001 (ip), vehicle: saline

## Cc1n[nH]c2ccc([N+](=O)[O-])cc2c1=O
T/C endpoint: mean survival time, dose: 200.0 mg/kg/injection, schedule: Q01DX009 (ip), vehicle: saline with Tween-80
  survivor count: 5 of 6
T/C endpoint: mean survival time, dose: 400.0 mg/kg/injection, schedule: Q01DX009 (ip), vehicle: saline with Tween-80
  survivor count: 3 of 6

## O=C(c1ccccc1)C1C(c2ccccc2)C2(CCCCC2=O)C(c2ccccc2)CC1(O)c1ccccc1 (stereo unspecified)
T/C endpoint: mean survival time, dose: 200.0 mg/kg/injection, schedule: Q01DX001 (ip), vehicle: Klucel (hydroxypropylcellulose) (HPC)
  survivor count: 3 of 3
T/C endpoint: mean survival time, dose: 400.0 mg/kg/injection, schedule: Q01DX001 (ip), vehicle: Klucel (hydroxypropylcellulose) (HPC)
  survivor count: 3 of 3

## N#CC(C(N)=O)C1CC(=O)Oc2ccccc21 (stereo unspecified)
T/C endpoint: mean survival time, dose: 400.0 mg/kg/injection, schedule: Q04DX003 (ip), vehicle: Klucel (hydroxypropylcellulose) (HPC)
  survivor count: 6 of 6

## CC(C)CC(C)OP(=S)(S)OC(C)CC(C)C.[Cd] (stereo unspecified)
T/C endpoint: mean survival time, dose: 100.0 mg/kg/injection, schedule: Q04DX002 (ip), vehicle: saline with Tween-80
  survivor count: 0 of 3

## COC(=O)C1(F)C(=O)NC(=O)NC1OC (stereo unspecified)
T/C endpoint: median survival time, dose: 50.0 mg/kg/injection, schedule: Q01DX009 (ip), vehicle: Klucel (hydroxypropylcellulose) (HPC)
  T/C: 148 % of control
T/C endpoint: median survival time, dose: 100.0 mg/kg/injection, schedule: Q01DX005 (ip), vehicle: Klucel (hydroxypropylcellulose) (HPC)
  T/C: 139 % of control
T/C endpoint: median survival time, dose: 300.0 mg/kg/injection, schedule: Q01DX009 (ip), vehicle: Klucel (hydroxypropylcellulose) (HPC)
  T/C: 149 % of control
T/C endpoint: median survival time, dose: 333.33 mg/kg/injection, schedule: Q01DX009 (ip), vehicle: Klucel (hydroxypropylcellulose) (HPC)
  T/C: 132 % of control
T/C endpoint: median survival time, dose: 400.0 mg/kg/injection, schedule: Q01DX009 (ip), vehicle: Klucel (hydroxypropylcellulose) (HPC)
  T/C: 135 and 145 % of control
T/C endpoint: median survival time, dose: 555.56 mg/kg/injection, schedule: Q01DX009 (ip), vehicle: Klucel (hydroxypropylcellulose) (HPC)
  T/C: 144 % of control
T/C endpoint: median survival time, dose: 800.0 mg/kg/injection, schedule: Q01DX009 (ip), vehicle: Klucel (hydroxypropylcellulose) (HPC)
  T/C: 126 % of control

## CCOC(=O)c1c(O)c2c([nH]c1=O)CCc1ccccc1-2
T/C endpoint: mean survival time, dose: 100.0 mg/kg/injection, schedule: Q01DX001 (ip), vehicle: saline with Tween-80
  survivor count: 6 of 6
[1]
  survivor count: 6 of 6
T/C endpoint: mean survival time, dose: 400.0 mg/kg/injection, schedule: Q01DX001 (ip), vehicle: saline with Tween-80
  survivor count: 6 of 6

## CC1CCCCC1NC(=O)Nc1ccccc1 (stereo unspecified)
T/C endpoint: mean survival time, dose: 400.0 mg/kg/injection, schedule: Q04DX003 (ip), vehicle: saline with Tween-80
  survivor count: 6 of 6

## CC(=O)SCCCCl
T/C endpoint: mean survival time, dose: 400.0 mg/kg/injection, schedule: Q01DX009 (ip), vehicle: saline
  survivor count: 3 of 6

## NCCCCCCN=C(N)C(N)=NCCCCCCN
T/C endpoint: mean survival time, dose: 25.0 mg/kg/injection, schedule: Q04DX002 (ip), vehicle: saline
  survivor count: 0 of 3

## O=C1CCCCC1CNCc1ccccc1 (stereo unspecified)
[2]
  survivor count: 0 of 6

## O=C(CSCC(=O)c1ccccc1)c1ccccc1
T/C endpoint: mean survival time, dose: 100.0 mg/kg/injection, schedule: Q04DX002 (ip), vehicle: Klucel (hydroxypropylcellulose) (HPC)
  survivor count: 3 of 3
T/C endpoint: mean survival time, dose: 200.0 mg/kg/injection, schedule: Q04DX002 (ip), vehicle: Klucel (hydroxypropylcellulose) (HPC)
  survivor count: 3 of 3

## COc1ccccc1OC(=O)Nc1ccc(C)c([N+](=O)[O-])c1
T/C endpoint: mean survival time, dose: 200.0 mg/kg/injection, schedule: Q04DX003 (ip), vehicle: saline with Tween-80
  survivor count: 6 of 6

## O=C(O)/C=C(/Br)C(=O)O
[3]
  survivor count: 3 of 6

## CCN(Cc1cnc2nc(N)nc(N)c2n1)c1c(Cl)cc(C(=O)NC(CCC(=O)O)C(=O)O)cc1Cl (stereo unspecified)
T/C endpoint: mean survival time, dose: 12.5 mg/kg/injection, schedule: Q01DX009 (ip), vehicle: sodium bicarbonate
  T/C: 136 % of control
T/C endpoint: mean survival time, dose: 25.0 mg/kg/injection, schedule: Q01DX009 (ip), vehicle: sodium bicarbonate
  T/C: 137 % of control
T/C endpoint: mean survival time, dose: 50.0 mg/kg/injection, schedule: Q01DX009 (ip), vehicle: sodium bicarbonate
  T/C: 139 % of control

## CC(C)OC(=O)Nc1cc(F)ccc1F
T/C endpoint: mean survival time, dose: 400.0 mg/kg/injection, schedule: Q01DX009 (ip), vehicle: other
  survivor count: 6 of 6

## Cc1cccc(C)c1OC(=O)Cl
T/C endpoint: mean survival time, dose: 80.0 mg/kg/injection, schedule: Q01DX001 (ip), vehicle: saline
  survivor count: 2 of 6
T/C endpoint: mean survival time, dose: 100.0 mg/kg/injection, schedule: Q01DX001 (ip), vehicle: saline
  survivor count: 0 of 6
T/C endpoint: mean survival time, dose: 200.0 mg/kg/injection, schedule: Q01DX001 (ip), vehicle: saline
  survivor count: 0 of 6
[3]
  survivor count: 0 of 6

## C/C=C1\C[C@@H]2C(OC)Nc3cc(O)c(OC)cc3C(=O)N2C1 (stereo partly specified)
T/C endpoint: mean survival time, dose: 3.0 mg/kg/injection, schedule: Q04DX002 (ip), vehicle: saline
  survivor count: 1 of 3
T/C endpoint: mean survival time, dose: 6.0 mg/kg/injection, schedule: Q04DX002 (ip), vehicle: saline
  survivor count: 2 of 3

## CN1C2Cc3cc4c(cc3C1Cc1cc3c(cc12)OCO3)OCO4
[2]
  survivor count: 2 of 6

## O=C1C=CC(c2ccccc2)(c2ccccc2)C=C1
[1]
  survivor count: 6 of 6

From PubChem BioAssay AID256 (DTP/NCI, 2004)
